In paper PMC3125180:
No constants are given. Whether binding was seen depends on the method and setting. In cells and extracts the contact can be indirect. These calls come from enrichment with a bait or labelling near it, and not all partners need be listed. For some assays here: A no says only that the protein was not detected with the bait. For some assays here: Where a sequence is shown, tags or fusion partners need not be part of it.

Protein sequences, listed by entry. Tags and fused reporters are not part of them. Lines headed by an entry give the natural chain unless they say otherwise; changes in a name come on top.
UniProt Q726B7: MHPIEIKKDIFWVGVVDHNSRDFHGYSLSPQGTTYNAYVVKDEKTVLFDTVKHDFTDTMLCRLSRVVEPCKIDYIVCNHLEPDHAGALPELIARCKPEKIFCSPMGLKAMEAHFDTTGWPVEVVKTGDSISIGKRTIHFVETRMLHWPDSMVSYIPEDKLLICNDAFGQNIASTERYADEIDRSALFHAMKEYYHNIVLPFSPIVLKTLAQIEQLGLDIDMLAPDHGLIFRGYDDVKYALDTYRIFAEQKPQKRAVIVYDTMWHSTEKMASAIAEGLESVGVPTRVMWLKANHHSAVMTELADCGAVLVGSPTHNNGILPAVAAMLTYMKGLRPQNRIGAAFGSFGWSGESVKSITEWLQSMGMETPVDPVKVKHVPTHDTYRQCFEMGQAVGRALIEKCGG
UniProt Q729Q8: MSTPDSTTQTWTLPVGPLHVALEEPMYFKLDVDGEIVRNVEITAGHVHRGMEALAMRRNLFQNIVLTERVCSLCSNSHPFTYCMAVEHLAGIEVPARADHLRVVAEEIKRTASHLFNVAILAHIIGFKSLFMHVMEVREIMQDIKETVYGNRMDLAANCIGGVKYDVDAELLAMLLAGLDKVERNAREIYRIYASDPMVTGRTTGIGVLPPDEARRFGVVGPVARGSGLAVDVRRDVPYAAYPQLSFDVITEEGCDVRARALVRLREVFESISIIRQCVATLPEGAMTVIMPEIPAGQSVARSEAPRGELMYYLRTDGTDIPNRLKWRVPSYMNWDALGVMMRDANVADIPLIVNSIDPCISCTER
UniProt Q72DT2: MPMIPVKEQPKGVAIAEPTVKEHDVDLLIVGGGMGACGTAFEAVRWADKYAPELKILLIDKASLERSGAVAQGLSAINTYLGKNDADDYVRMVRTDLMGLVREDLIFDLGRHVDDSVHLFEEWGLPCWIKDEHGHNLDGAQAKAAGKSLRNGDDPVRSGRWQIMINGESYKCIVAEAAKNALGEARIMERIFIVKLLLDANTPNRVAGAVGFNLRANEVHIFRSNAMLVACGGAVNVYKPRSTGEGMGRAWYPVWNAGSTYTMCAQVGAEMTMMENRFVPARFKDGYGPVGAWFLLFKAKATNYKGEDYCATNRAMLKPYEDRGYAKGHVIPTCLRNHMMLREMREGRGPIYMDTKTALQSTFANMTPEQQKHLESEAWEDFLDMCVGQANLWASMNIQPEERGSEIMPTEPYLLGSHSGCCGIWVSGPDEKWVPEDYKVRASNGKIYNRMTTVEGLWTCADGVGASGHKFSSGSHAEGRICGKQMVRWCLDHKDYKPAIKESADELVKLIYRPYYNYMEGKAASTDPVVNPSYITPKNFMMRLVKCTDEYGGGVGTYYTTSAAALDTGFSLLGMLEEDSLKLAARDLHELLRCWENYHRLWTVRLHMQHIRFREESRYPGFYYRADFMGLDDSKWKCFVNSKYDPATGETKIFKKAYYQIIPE
UniProt Q72DW8: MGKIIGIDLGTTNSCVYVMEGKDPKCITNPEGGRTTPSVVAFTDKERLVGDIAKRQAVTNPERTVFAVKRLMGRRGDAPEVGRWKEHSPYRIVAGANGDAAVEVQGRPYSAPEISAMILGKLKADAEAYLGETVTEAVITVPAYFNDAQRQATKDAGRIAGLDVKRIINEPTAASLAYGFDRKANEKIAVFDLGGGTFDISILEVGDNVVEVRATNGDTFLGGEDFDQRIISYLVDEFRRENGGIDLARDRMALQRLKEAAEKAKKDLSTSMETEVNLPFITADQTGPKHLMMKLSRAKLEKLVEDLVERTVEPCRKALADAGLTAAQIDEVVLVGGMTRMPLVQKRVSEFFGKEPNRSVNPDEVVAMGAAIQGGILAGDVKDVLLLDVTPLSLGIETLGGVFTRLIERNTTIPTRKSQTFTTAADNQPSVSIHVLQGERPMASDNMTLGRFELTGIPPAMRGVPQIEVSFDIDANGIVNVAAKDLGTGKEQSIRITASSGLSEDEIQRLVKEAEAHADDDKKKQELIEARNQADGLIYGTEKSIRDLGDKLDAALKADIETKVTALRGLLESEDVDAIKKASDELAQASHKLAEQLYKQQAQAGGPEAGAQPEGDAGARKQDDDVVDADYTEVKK

Columns and labels:
Experiment in all cases: affinity purification with mass spectrometry; chromosomally C-terminally Strep-tag II-tagged bait in D. vulgaris JW801 grown anaerobically in LS4D to late log phase; soluble lysate (60~70 mg protein) on a 1-ml Strep-Tactin Sepharose column, gravity flow, 4°C, Buffer W (100 mM Tris-HCl, 150 mM NaCl, 1 mM EDTA, pH 8), eluted with desthiobiotin; tryptic digest, LC-MS/MS; three biological replicates; untagged JW801 as no-bait control
[1] = target: Strep-tagged Rubredoxin-oxygen oxidoreductase, Roo (DVU3185) (Desulfovibrio vulgaris Hildenborough (strain JW801)) (UniProt Q726B7)
[2] = target: Strep-tagged carbon monoxide-induced hydrogenase CooH (DVU2291) (Desulfovibrio vulgaris Hildenborough (strain JW801)) (UniProt Q729Q8)
[3] = target: Strep-tagged ApsA (DVU0847) (Desulfovibrio vulgaris Hildenborough (strain JW801)) (UniProt Q72DT2)
[4] = target: Strep-tagged Ftn (Desulfovibrio vulgaris Hildenborough (strain JW801))
[5] = target: Strep-tagged DnaK (DVU0811) (Desulfovibrio vulgaris Hildenborough (strain JW801)) (UniProt Q72DW8)
[6] = target: T1, Strep-tagged HslV (DVU1577) (Desulfovibrio vulgaris Hildenborough (strain JW801)) (UniProt Q72BQ7)
T1 sequence: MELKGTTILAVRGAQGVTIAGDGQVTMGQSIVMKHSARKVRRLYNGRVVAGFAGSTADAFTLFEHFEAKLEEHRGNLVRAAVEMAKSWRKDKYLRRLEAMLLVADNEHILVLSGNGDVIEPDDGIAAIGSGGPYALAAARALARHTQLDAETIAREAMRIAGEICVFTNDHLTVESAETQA

[7] = target: T2, Strep-tagged Polyribonucleotide nucleotidyltransferase (Pnp, DVU0503) (Desulfovibrio vulgaris Hildenborough (strain JW801)) (UniProt Q72ER6)
T2 sequence: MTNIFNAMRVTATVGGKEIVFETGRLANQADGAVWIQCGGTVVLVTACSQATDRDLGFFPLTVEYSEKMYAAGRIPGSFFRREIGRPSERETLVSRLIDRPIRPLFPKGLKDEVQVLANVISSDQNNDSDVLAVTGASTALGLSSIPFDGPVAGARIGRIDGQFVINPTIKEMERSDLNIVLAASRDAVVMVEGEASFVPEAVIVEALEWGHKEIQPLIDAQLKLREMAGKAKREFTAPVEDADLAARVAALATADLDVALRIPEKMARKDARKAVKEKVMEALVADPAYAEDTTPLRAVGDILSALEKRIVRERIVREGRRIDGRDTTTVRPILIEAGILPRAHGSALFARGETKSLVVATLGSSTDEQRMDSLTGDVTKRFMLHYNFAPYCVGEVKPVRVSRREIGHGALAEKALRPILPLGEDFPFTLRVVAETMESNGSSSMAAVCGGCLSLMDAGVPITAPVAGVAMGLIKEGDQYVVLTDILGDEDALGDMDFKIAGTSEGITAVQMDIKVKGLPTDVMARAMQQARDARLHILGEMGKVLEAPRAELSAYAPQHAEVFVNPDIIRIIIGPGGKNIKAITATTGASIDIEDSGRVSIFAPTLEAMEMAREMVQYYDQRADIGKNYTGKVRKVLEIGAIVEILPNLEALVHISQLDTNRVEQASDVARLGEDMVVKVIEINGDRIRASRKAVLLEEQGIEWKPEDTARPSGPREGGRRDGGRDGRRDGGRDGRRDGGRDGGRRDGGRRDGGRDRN

B1: DsrC (DVU2776) (protein, UniProt P45573 1-105)
chain: MAEVTYKGKSFEVDEDGFLLRFDDWCPEWVEYVKESEGISDISPDHQKIIDFLQDYYKKNGIAPMVRILSKNTGFKLKEVYELFPSGPGKGACKMAGLPKPTGCV
In the case of B1, the binding [1] is reported as “binds”, the binding [2] is reported as “binds” and the binding [3] is reported as “binds”.

B2: ribosomal protein L7/L12 (DVU2927) (protein, UniProt Q727C8 1-127)
chain: MSITKEQVVEFIGNMTVLELSEFIKELEEKFGVSAAAPMAAMAVAAPAGDAAPAEEEKTEFDIILKSAGANKIGVIKVVRALTGLGLKEAKDKVDGAPSTLKEAASKEEAEEAKKQLVEAGAEVEIK
B2 was tested, and the binding [3] was “binds”.

B3: S-adenosylmethionine synthetase (MetK, DVU2449) (enzyme, UniProt Q729A3 1-391)
chain: MIPSKGKYYFTSESVTEGHPDKVADQISDAVLDVLLAQDPNSRVACETLVTTGMAVIAGEITTRGYADLPHVVRETIRNIGYNSSEMGFDWQTCAVISSIDKQSADIAQGVDRATNEDQGAGDQGMMFGFACDETATLMPAPIYWAHQLSQRLTEVRKDGTVDIFRPDGKTQVSFEYVDGKPVRINNVVVSTQHKDSASQADIIDAVKTHVIRPILEPSGFFDEKACDIFINTTGRFVIGGPMGDCGLTGRKIIQDTYGGMGHHGGGAFSGKDASKVDRSGAYMARYIAKNVVASGLAPKCEVQIAYCIGVAEPVSVLVSSQGTASVPDEVLTRAVREVFDLRPFHITRRLDLLRPIYGKTSCYGHFGRELPEFTWEHTDAAADLRTAAKV
With B3 the binding [3] was “binds”.

B4: adenosylhomocysteinase (AhcY, DVU0607) (enzyme, UniProt Q72EH1 1-479)
chain: MTDAKRAQKLDLSLDHKVADMSLADYGRKDLQLSEREMPGLMELIRKYGGTKPLKGLKVTGSLHMTIQTAMLIRTLYELGADIRWASCNIFSTQDHAAAAIAASGMAKVFAWKGETLEDYWWCTEMALTWPDGSGPDLLVDDGGDATLFIHKGVEVENDPSLLKKAYDNKEFQIIMDRLALAYEQDPGRWQRVAAKVRGVSEETTTGVHRLYQLEQEGKLLFPAINVNDAVTKSKFDNLYGCRESLADGIKRATDVMVAGKVVVVAGYGDVGKGCAQSMRGFGARVLVTEIDPICALQAAMEGYEVTTMEEAVRTGDIFVTATGNCNVITGAHMEAMKDEAIVCNIGHFDNEIDMHYLENTEGCVCLNIKPQVDKWTLRSGRSIIVLAEGRLVNLGCATGHPSFVMSASFTNQTLAQIELATNPDLERKVYTLPKKLDEEVARLHLDRLGVKLTRLSKDQADYIGVSPEGPFKPDHYRY
B4 was tested, and the binding [3] was “binds”.

B5: desulfoferrodoxin (Sor/Rbo, DVU3183) (enzyme, UniProt P20418 1-126)
chain: MPNQYEIYKCIHCGNIVEVLHAGGGDLVCCGEPMKLMKEGTSDGAKEKHVPVIEKTANGYKVTVGSVAHPMEEKHWIEWIELVADGVSYKKFLKPGDAPEAEFCIKADKVVAREYCNLHGHWKAEA
With B5 the binding [4] was “binds”, the binding [1] was “binds” and the binding [2] was “binds”. For the same binder, the binding [3] was “binds”.

B6: DnaJ (DVU3243) (protein, UniProt Q725M6 1-376)
chain: MSQRDYYEVLGVARDASEDDIKRAYRKLALQYHPDRNPDDPEAEQKFKEAAEAYDVLRDGEKRARYDRFGHAGVGNGGGFGQGFSSNEDIFAHFSDIFGDLFGFAGAAGGRSRGPRPQAGSDLRYNLTISFRQAAKGDEVTLRLPKSVPCDECGGSGAAPGTRPETCRHCGGAGQIRQSQGFFQIAMPCPVCRGEGTVITSPCPKCKGSGQTQQVKELSVRIPAGVDTGNRLRLRGEGEPGIHGGPAGDLYVVISVEDDKTFRRQGQDLVVTREISFVQASLGDRIDVPTLDDDITLDIPAGTQSGEVFRLVDKGLPYLGHGHTGDLLVEIRVVTPTRLTKKQEELLREFALLDEEKPLEKVKKMARKIGKAMGMD
In the case of B6, the binding [5] is reported as “binds”.

B7: carbon monoxide dehydrogenase, CooS (DVU2098) (enzyme, UniProt Q72A99 1-629)
chain: MSSSKTIRSRSIWDDAHAMLEKAKAEGISTVWDRAAEQTPACKFCELGTTCRNCIMGPCRIANRKDGKMRLGVCGADADVIVARNFGRFIAGGAAGHSDHGRDLIETLEAVAEGKAPGYTIRDVAKLRRIAAELGVADAATRPAHDVAADLVTICYNDFGSRRNALAFLARAPQVRRDLWQRLGMTPRGVDREIAEMMHRTHMGCDNDHTSLLVHAARTALADGWGGSMIGTELSDILFGTPRPRQSTVNLGVLRKDAVNILVHGHNPVVSEMILAATREPAVRQAAQDAGAADINVAGLCCTGNELLMRQGIPMAGNHLMTELAIVTGAADAIVADYQCIMPSLVQIAACYHTRFVTTSPKGRFTGATHVEVHPHNAQERCREIVMLAIDAYTRRDPARVDIPSQPVSIMSGFSNEAILEALGGTPKPLIDAVVAGQIRGFVGIVGCNNPKIRQDSANVTLTRELIRRDIMVLATGCVTTAAGKAGLLVPEAASKAGEGLAAVCRSLGVPPVLHMGSCVDNSRILQLCALLATTLGVDISDLPVGASSPEWYSEKAAAIAMYAVASGIPTHLGLPPNILGSENVTAMALHGLQDVVGAAFMVEPDPVKAADMLEAHIVARRARLGLTS
With B7 the binding [2] was “no binding”.

B8: HslU (DVU1467) (protein, UniProt Q72C17 1-441)
chain: MSTLTPREIVSELDRFVVGQEKAKRMVAVAMRNRWRRQRLEPSLRDEVAPKNIIMMGPTGVGKTEIARRLARLCGAPFIKVEATKYTEVGYVGRDVESMVRDLMEIGVSLIRDEEATRVRARAEAAAEERLLDLLLPQSPADGGETRQSTRDKLRGLWRQGHLDDREVDMEVEESTKGPQMDIFAMPGMESMGNQFRDLMGKAFPARRKMRKMKLREAWNLLVDEEASRLLDQDKVVDIARERVEQTGIIFIDELDKVASGEGTHRTTDISREGVQRDLLPIVEGSVVNTKYGMVRTDHILFIAAGAFHFSKPSDLIPELQGRFPLRVELDPLGRDEFYRILTEPHNALTRQYAALLATEGVTVSFTDDGLREIAAFAEEVNEETENIGARRLYTMMERILADISFDAPDRPGEHVTVDAAYVRTHLEDVRVDKDLSRYIL
With B8 the binding [6] was “no binding”.

B9: Eno (DVU0322) (enzyme, UniProt Q72F92 1-437)
chain: MSTIVSVWAREILDSRGNPTIEVEVSLESGHSGRAAVPSGASTGTREALELRDGDKGRYKGKGVEKAVDNVMGEIAEAVIGLDALRQVQLDNTLLDLDGTDNKERLGANAMLGVSLATARAASSFLGLPLYQYLGGVNAKVLPVPLMNIINGGAHAPNNLDIQEFMIMPIGAATFRDALRMGAETFHTLKALLAADGHVTSVGDEGGFAPNLKSHDEAFKYITRAIEESGYIPGAEIALAIDAAASEFYRDGKYHLAGEGKTFSNSEMTEWLGEFTAKYPLISIEDGLAEGDWEGWGELTYKLGDTVQLVGDDIFVTNPDILAQGIDEGVANSILIKLNQIGTLTETLDTIEMAKQAAYTTVISHRSGETEDHFIADLAVGLNAGQIKTGSLCRSDRLAKYNQLLRIEEDLDDAGIYFGPMIASHFGYEGDEEFEDA
For B9, the binding [7] was “no binding”.
